Results taken from patent US20050282757A1, “Peptide boronic acid compounds useful in anticoagulation” (Trigen Limited, priority 2002, published 2005).
At least one compound was matched to its structure with a doubt left.

How the values were obtained:
thrombin time and APTT = test: Oral administration in dog, PK/PD (Example 45)
[1] = Stability in enteric-coated hard gelatin capsules, HPLC-PDA (Example 41); format: physicochemical
Description: TRI 50c-standard (free acid) was stored in a desiccator over phosphorus pentoxide for 2 days for drying. Afterwards, the reference standard was weighed in a volumetric flask and dissolved in a mixture of acetonitrile and water (25/75 v/v %). Aliquots of the resulting solution (ST 1A) were diluted successively with water as shown in the dilution scheme of table 4.
The stored capsules of every batch at corresponding climatic condition were removed and 10 mg of the content was weighed in a 10 ml volumetric flask and dissolved in 10 ml of a mixture of acetonitrile/water (25/75 v/v %). These solutions were injected for impurity profile analysis and for quantification respectively.
The quantitative evaluation and the impurity profile analysis were performed using an HPLC-PDA method. The processing wavelength was set as 258 nm.

Structure (SMILES): COCCC[C@H](NC(=O)[C@@H]1CCCN1C(=O)[C@@H](Cc1ccccc1)NC(=O)OCc1ccccc1)B(O)O [TRI 50c, Cbz-(R)-Phe-(S)-Pro-(R)-Mpg-B(OH)2]
- changes in APTT from base line (thrombin time and APTT): no significant changes in APTT from base line
- Purity (HPLC % Area) T1 ([1]; capsules in blister, 1.5 month 25° C./60% r.h.): 73.9 HPLC % Area
- Purity (HPLC % Area) T1 ([1]; capsules in blister, 1.5 month 40° C./75% r.h.): 73.9 HPLC % Area
- Purity (HPLC % Area) T1 ([1]; capsules without blister, 1.5 month 40° C./75% r.h.): 75.3 HPLC % Area
- Purity (HPLC % Area) T0 ([1]; purity of the batch before storage): 99 HPLC % Area
